Measurements taken from patent US20250171438A1 (Agios Pharmaceuticals, Inc., priority 2022, published 2025).
Some entries share one result that the patent states for a list of compounds.

Target: T1, human PAH with the R408W mutation (Homo sapiens, UniProt P00439, R408W)
T1 construct: expressed in transfected cells
T1 sequence (P00439 1-452 R408W): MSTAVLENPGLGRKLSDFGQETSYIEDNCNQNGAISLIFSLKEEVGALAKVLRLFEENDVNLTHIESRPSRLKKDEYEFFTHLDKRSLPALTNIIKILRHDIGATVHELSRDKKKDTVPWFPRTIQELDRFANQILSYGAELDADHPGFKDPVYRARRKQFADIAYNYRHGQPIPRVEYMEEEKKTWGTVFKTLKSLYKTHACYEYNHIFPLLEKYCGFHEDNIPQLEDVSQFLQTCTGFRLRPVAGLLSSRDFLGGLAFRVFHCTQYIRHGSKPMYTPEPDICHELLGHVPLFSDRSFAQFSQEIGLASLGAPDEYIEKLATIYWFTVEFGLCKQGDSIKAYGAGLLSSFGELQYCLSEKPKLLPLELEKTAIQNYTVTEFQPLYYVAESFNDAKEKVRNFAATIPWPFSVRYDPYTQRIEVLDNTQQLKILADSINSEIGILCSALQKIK
Experiment: Cell Based Phenylalanine Flux Assay
Details: A375 cells expressing human R408W PAH; 24 hrs with compound; 13C-Tyrosine by LC-MS; average where tested multiple times

COCCc1ncc(C(=O)N2CC(C)c3[nH]cnc3C2c2nc3ccccc3s2)o1 [(4S,7S) diastereomer of 2-[5-[2-(2-methoxyethyl)-1,3-oxazole]
AC50: 1000 to 5000 nM
